Laboratory results: the supplement of paper PMC10849652
The list shows a part of the results.

Sequences of proteins named here, by UniProt entry; tags and fusion partners are left off. A change or cut given only in a name is not applied to a line headed by its entry.
UniProt Q8TDW7: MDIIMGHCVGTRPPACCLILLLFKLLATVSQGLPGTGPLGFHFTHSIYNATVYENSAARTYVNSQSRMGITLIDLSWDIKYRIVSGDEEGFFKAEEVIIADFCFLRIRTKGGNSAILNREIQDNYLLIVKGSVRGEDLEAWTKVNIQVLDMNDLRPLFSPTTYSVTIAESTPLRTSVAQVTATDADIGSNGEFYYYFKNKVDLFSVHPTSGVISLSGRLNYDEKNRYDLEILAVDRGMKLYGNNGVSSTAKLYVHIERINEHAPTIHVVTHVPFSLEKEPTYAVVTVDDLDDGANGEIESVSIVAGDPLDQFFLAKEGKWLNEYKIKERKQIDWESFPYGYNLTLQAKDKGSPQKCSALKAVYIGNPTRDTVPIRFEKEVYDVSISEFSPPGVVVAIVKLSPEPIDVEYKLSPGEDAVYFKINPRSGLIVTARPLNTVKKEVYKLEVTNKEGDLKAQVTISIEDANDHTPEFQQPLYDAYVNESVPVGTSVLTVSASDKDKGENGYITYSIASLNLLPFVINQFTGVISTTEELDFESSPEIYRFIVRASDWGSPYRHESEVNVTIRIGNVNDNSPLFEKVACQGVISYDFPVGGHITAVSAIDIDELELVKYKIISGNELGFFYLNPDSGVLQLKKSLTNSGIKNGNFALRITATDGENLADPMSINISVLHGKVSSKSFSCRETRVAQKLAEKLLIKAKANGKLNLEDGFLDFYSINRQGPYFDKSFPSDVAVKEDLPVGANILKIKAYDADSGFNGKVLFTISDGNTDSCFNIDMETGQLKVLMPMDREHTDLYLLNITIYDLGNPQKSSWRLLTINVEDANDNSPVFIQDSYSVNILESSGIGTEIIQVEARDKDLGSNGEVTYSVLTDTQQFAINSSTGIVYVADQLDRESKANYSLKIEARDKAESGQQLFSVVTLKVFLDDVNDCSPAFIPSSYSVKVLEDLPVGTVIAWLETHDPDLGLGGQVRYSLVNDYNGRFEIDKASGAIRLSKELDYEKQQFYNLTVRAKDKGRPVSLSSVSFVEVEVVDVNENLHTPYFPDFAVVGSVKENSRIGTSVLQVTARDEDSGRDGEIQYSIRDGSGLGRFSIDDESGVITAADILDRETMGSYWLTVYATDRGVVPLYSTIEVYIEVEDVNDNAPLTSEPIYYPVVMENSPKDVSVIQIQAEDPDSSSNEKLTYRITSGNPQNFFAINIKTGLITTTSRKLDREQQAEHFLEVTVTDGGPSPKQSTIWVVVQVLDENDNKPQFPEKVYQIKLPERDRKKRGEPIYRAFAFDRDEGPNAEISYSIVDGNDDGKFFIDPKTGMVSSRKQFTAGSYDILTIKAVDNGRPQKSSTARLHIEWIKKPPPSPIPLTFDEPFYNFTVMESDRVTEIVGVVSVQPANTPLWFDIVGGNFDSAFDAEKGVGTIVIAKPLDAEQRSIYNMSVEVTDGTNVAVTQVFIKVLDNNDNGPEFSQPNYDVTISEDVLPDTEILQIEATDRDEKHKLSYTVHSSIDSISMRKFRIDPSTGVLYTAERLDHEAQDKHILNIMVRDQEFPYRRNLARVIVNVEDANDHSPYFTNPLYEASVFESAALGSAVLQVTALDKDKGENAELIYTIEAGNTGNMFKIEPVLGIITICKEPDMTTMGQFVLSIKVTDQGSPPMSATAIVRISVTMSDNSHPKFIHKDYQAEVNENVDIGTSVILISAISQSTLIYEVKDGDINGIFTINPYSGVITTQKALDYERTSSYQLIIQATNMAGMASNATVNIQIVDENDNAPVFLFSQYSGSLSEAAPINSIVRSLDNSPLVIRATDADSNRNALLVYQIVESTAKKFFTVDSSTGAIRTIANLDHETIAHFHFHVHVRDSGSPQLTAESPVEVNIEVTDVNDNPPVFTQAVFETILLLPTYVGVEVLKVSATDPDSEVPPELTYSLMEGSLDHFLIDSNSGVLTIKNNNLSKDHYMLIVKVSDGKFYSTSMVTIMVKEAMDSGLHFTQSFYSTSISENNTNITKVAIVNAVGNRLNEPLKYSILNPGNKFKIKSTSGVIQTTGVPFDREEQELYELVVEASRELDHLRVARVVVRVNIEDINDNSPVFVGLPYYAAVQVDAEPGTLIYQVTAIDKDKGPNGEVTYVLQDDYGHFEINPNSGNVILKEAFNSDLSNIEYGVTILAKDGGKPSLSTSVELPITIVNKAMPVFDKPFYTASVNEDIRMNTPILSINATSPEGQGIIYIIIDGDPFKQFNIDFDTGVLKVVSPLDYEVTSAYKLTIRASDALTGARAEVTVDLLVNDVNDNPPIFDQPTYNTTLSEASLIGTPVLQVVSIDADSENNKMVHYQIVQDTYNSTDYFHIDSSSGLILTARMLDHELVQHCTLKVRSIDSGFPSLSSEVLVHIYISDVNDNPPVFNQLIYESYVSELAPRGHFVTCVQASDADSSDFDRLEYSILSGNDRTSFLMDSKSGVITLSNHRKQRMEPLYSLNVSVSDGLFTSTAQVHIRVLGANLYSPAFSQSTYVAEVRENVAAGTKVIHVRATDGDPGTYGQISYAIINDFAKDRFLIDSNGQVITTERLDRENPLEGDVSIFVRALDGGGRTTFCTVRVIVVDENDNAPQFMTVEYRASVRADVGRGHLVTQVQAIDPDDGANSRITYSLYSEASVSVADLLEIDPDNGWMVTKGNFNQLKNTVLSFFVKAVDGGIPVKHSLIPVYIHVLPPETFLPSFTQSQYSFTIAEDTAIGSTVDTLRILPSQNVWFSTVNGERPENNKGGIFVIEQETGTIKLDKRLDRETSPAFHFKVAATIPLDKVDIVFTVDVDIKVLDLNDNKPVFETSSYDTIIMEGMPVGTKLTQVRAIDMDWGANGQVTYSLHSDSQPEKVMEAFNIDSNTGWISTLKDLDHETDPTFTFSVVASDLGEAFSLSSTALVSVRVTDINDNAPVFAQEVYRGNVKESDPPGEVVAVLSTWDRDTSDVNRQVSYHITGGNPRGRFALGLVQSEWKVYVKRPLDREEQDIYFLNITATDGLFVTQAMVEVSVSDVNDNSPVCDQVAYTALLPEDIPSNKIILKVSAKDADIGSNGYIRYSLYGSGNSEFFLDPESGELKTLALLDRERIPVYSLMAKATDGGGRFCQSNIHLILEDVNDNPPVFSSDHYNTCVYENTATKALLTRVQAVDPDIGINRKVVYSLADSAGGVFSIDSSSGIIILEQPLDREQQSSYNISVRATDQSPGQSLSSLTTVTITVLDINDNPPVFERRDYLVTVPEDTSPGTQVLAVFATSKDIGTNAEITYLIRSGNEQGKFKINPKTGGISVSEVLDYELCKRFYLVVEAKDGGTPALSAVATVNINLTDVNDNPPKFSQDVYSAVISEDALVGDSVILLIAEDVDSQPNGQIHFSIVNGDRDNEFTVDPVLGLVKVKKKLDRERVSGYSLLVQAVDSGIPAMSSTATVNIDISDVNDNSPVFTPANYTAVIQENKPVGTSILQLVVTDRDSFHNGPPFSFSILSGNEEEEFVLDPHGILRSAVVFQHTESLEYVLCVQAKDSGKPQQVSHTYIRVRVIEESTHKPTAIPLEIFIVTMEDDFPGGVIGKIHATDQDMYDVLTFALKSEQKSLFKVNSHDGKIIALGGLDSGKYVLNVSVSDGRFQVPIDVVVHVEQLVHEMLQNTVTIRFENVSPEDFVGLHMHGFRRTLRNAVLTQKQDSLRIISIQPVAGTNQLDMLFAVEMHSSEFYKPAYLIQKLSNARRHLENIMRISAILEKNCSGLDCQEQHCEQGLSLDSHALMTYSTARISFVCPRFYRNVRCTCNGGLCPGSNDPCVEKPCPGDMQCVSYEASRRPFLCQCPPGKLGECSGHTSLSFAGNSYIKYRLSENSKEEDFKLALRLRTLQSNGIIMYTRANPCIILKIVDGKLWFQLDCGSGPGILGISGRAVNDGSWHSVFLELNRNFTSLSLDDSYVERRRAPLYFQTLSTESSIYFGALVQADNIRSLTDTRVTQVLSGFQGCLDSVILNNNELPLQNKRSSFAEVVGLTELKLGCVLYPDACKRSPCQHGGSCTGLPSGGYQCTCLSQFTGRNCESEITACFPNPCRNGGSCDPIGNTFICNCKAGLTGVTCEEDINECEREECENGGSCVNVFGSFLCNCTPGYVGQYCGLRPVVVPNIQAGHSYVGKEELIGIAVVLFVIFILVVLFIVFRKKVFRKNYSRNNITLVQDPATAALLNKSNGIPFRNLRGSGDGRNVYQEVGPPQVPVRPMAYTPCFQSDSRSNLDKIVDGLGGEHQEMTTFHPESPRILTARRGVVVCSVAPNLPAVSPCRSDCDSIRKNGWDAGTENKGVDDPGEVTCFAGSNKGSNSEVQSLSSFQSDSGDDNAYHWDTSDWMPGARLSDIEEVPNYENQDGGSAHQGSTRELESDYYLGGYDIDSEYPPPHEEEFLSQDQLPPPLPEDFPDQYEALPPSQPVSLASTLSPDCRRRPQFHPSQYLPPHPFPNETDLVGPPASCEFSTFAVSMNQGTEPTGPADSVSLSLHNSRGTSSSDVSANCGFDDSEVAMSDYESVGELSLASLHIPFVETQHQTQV
UniProt P26885: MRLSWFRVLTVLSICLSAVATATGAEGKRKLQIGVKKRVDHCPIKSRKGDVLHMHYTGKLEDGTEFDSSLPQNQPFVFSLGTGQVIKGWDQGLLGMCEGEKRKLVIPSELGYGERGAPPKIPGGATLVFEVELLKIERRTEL
UniProt O43427: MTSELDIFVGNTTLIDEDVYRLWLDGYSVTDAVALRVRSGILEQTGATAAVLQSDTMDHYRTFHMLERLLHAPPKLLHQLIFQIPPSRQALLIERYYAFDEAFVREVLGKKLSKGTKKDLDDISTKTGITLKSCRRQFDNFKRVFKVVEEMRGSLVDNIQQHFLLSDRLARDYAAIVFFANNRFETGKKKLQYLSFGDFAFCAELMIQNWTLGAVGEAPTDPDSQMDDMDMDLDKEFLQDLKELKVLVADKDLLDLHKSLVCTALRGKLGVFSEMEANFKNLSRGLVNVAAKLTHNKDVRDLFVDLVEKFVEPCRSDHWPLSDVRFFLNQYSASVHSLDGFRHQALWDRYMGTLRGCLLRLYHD
UniProt Q96KR6: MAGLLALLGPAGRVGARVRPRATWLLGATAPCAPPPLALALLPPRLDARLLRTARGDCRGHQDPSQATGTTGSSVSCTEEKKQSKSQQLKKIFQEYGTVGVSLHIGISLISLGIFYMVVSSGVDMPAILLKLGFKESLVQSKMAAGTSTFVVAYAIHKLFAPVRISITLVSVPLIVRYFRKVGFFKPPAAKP
UniProt Q9UK97: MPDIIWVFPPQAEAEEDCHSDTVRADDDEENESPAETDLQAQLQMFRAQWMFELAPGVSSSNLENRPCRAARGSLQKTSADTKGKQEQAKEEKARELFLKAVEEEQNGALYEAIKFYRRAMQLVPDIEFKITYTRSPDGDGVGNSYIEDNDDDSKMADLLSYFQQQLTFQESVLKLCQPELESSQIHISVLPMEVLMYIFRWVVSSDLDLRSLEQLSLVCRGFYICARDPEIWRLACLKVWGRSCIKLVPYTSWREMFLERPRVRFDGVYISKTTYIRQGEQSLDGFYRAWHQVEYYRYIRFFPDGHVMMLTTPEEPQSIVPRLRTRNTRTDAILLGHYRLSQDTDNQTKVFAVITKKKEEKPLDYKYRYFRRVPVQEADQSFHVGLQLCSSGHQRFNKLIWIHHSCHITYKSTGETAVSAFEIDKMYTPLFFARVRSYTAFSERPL
UniProt Q9UKT8: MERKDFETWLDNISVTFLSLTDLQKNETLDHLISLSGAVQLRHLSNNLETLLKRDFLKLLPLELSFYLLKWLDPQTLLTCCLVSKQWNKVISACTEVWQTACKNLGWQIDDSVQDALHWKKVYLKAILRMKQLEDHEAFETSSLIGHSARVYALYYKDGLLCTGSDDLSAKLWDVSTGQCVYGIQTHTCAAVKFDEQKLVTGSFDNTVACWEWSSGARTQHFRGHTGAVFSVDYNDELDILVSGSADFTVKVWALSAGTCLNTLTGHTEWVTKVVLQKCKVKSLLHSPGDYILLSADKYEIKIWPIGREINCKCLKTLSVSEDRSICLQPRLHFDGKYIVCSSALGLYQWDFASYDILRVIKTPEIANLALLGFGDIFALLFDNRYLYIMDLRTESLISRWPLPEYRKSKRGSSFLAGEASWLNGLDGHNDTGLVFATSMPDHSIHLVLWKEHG
UniProt Q06828: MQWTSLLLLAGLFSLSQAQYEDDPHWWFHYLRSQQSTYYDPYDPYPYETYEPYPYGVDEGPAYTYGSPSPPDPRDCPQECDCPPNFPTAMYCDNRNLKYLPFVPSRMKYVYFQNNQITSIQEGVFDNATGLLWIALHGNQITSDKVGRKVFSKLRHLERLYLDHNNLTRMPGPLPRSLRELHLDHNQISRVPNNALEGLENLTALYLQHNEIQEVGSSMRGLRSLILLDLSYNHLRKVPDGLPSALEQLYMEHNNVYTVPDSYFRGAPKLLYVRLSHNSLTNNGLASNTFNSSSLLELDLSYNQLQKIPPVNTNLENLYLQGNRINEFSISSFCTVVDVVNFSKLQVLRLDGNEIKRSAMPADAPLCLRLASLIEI

Columns and labels:
Experiment in all cases: log2 fold change, soluble protein after heating vs DMSO (PISA); higher = thermal stabilisation; K562 cells, 10 uM, 30 min; active = over 0.2 and 3.5 SD of the protein, either way, in both replicates (recomputed)
[1] = compound: COC1=CC=C(C=C1)CN2C=CC3=C2C=C(C=C3)C(=O)NO
Method in brief: (§1)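 K562 cells at 2×10^6 cells/mL were exposed to 10 μM compound for 30 min, then aliquots were heated for 3 min across 48°C-58°C, pooled, and extracted in PBS containing 0.5% NP-40 at 4°C. The supernatant after 21,000xg for 90 min was taken as soluble protein and measured by TMTpro 16plex LC-MS/MS with channel sums equalised. Thermal stability is reported relative to control samples, with values from duplicates. Fold changes are given on a log2 scale.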

filanesib = compound: CON(C)C(=O)N1N=C(c2cc(F)ccc2F)S[C@@]1(CCCN)c1ccccc1 [filanesib]
Method in brief: as §1

zotarolimus = compound: CO[C@H]1C[C@@H]2CC[C@@H](C)[C@@](O)(O2)C(=O)C(=O)N2CCCC[C@H]2C(=O)O[C@H]([C@H](C)C[C@@H]2CC[C@H](n3cnnn3)[C@H](OC)C2)CC(=O)[C@H](C)/C=C(\C)[C@@H](O)[C@@H](OC)C(=O)[C@H](C)C[C@H](C)/C=C/C=C/C=C/1C [zotarolimus]
Method in brief: as §1

idasanutlin = compound: COc1cc(C(=O)O)ccc1NC(=O)[C@@H]1N[C@@H](CC(C)(C)C)[C@](C#N)(c2ccc(Cl)cc2F)[C@H]1c1cccc(Cl)c1F [idasanutlin]
Method in brief: as §1

alisertib = compound: COc1cc(Nc2ncc3c(n2)-c2ccc(Cl)cc2C(c2c(F)cccc2OC)=NC3)ccc1C(=O)O [alisertib]
Method in brief: as §1

[2] = compound: COc1cc2nc(-c3cc(F)ccc3O)nc(N[C@@H]3CNC[C@H]3C(C)(C)O)c2cc1OC
Method in brief: as §1

gefitinib = compound: COc1cc2ncnc(Nc3ccc(F)c(Cl)c3)c2cc1OCCCN1CCOCC1 [gefitinib]
Method in brief: as §1

[3] = compound: COc1cccc2cc(-c3nc([C@H]4CC[C@H](C(=O)O)CC4)n4ncnc(N)c34)[nH]c12
Method in brief: as §1

lapatinib = compound: CS(=O)(=O)CCNCc1ccc(-c2ccc3ncnc(Nc4ccc(OCc5cccc(F)c5)c(Cl)c4)c3c2)o1 [lapatinib]
Method in brief: as §1

pictilisib = compound: CS(=O)(=O)N1CCN(Cc2cc3nc(-c4cccc5[nH]ncc45)nc(N4CCOCC4)c3s2)CC1 [pictilisib]
Method in brief: as §1

| Target | log2 fold change [1] | log2 fold change (filanesib) | log2 fold change (zotarolimus) | log2 fold change (idasanutlin) | log2 fold change (alisertib) | log2 fold change [2] | log2 fold change (gefitinib) | log2 fold change [3] | log2 fold change (lapatinib) | log2 fold change (pictilisib) |
| --- | --- | --- | --- | --- | --- | --- | --- | --- | --- | --- |
| FLT4 (UniProt P35916) | inactive: -0.053 | inactive: -0.068 | inactive: 0.016 | inactive: -0.065 | inactive: 0.932 | inactive: 0.021 | inactive: -0.115 | inactive: -0.014 | inactive: -0.062 | inactive: -0.018 |
| FHAD1 isoform 3 (UniProt B1AJZ9) | inactive: -0.01 | – | inactive: -0.417 | inactive: -0.232 | – | inactive: -0.13 | – | – | inactive: 0.025 | inactive: -0.099 |
| FLAD1 (UniProt Q8NFF5) | inactive: -0.03 | inactive: 0.057 | inactive: 0.023 | inactive: -0.063 | inactive: -0.013 | inactive: 0.157 | inactive: -0.009 | inactive: 0.069 | inactive: -0.046 | inactive: 0.168 |
| FN3K (UniProt Q9H479) | inactive: -0.01 | inactive: -0.019 | inactive: -0.009 | inactive: 0.008 | inactive: -0.06 | inactive: -0.016 | inactive: -0.011 | inactive: 0.023 | inactive: 0.042 | inactive: -0.048 |
| FCHSD1 (UniProt Q86WN1) | inactive: -0.034 | inactive: 0.178 | inactive: -0.138 | inactive: -0.148 | – | inactive: 0.059 | – | – | inactive: -0.06 | inactive: -0.039 |
| FAM91A1 (UniProt Q658Y4) | inactive: -0.081 | inactive: -0.059 | inactive: 0.029 | inactive: -0.044 | inactive: -0.076 | inactive: -0.003 | inactive: -0.013 | inactive: 0.035 | inactive: 0.045 | inactive: -0.047 |
| FBXO22 (UniProt Q8NEZ5) | inactive: 0.041 | inactive: -0.051 | inactive: 0.011 | inactive: -0.059 | inactive: -0.034 | inactive: 0.022 | inactive: -0.013 | inactive: 0 | inactive: 0.046 | inactive: -0.062 |
| FCGR2A (UniProt P12318) | inactive: -0.08 | inactive: 0.096 | – | inactive: -0.045 | inactive: -0.148 | inactive: -0.026 | inactive: 0.029 | inactive: 0.107 | inactive: 0.006 | inactive: 0.023 |
| FAT3 isoform 1 (UniProt Q8TDW7) | inactive: 0.164 | inactive: 0.068 | – | – | inactive: 0 | inactive: 0.124 | inactive: 0.087 | inactive: 0.332 | inactive: 0.002 | – |
| FKBPL (UniProt Q9UIM3) | inactive: -0.019 | inactive: -0.05 | inactive: 0.001 | inactive: 0.028 | inactive: -0.04 | inactive: 0.015 | inactive: 0.05 | inactive: 0.003 | inactive: 0.029 | inactive: 0.026 |
| FLOT2 (UniProt Q14254) | inactive: -0.106 | inactive: 0.097 | inactive: -0.017 | inactive: 0.069 | inactive: -0.222 | inactive: -0.024 | inactive: 0.067 | inactive: -0.359 | inactive: 0.033 | inactive: -0.022 |
| FMR1 (UniProt Q06787) | inactive: -0.3 | inactive: 0.219 | inactive: 0.005 | – | inactive: -0.023 | inactive: 0.286 | – | inactive: 0.322 | inactive: -0.027 | inactive: 0.036 |
| FAM89A (UniProt Q96GI7) | inactive: 0.062 | inactive: 0.184 | – | – | inactive: -0.16 | – | inactive: 0.125 | inactive: 0.101 | – | – |
| FKBP2 (UniProt P26885) | inactive: -0.006 | inactive: -0.027 | inactive: 0.234 | inactive: 0.025 | inactive: 0.004 | inactive: 0.029 | inactive: 0.001 | inactive: -0.014 | inactive: -0.051 | inactive: 0.062 |
| FAM78A (UniProt Q5JUQ0) | inactive: -0.004 | inactive: 0.043 | inactive: -0.029 | inactive: 0.012 | – | inactive: 0.043 | inactive: -0.018 | – | inactive: -0.119 | inactive: 0.176 |
| FAT1 (UniProt Q14517) | inactive: 0.098 | inactive: 0.097 | inactive: -0.08 | – | inactive: -0.267 | inactive: 0.027 | inactive: 0.023 | inactive: -0.098 | inactive: 0.029 | inactive: 0.041 |

| Target | log2 fold change [1] | log2 fold change (filanesib) | log2 fold change (zotarolimus) | log2 fold change (idasanutlin) | log2 fold change (alisertib) | log2 fold change [2] | log2 fold change (gefitinib) | log2 fold change [3] | log2 fold change (lapatinib) | log2 fold change (pictilisib) |
| --- | --- | --- | --- | --- | --- | --- | --- | --- | --- | --- |
| FIBP (UniProt O43427) | inactive: 0.083 | inactive: -0.051 | inactive: -0.047 | inactive: 0.03 | inactive: 0.016 | inactive: 0.042 | – | inactive: -0.084 | inactive: 0.008 | inactive: 0.185 |
| FBRS (UniProt J3KNZ9) | inactive: -0.397 | inactive: 0.391 | inactive: -0.101 | inactive: 0.27 | – | inactive: 0.242 | inactive: -0.076 | – | inactive: -0.188 | inactive: -0.068 |
| FCF1 (UniProt Q9Y324) | inactive: -0.026 | inactive: 0.405 | – | – | inactive: -0.272 | inactive: 0.1 | – | inactive: -0.299 | inactive: 0.157 | inactive: -0.262 |
| FAM210B (UniProt Q96KR6) | inactive: 0.014 | inactive: -0.078 | inactive: -0.023 | inactive: -0.043 | – | – | inactive: -0.024 | – | – | inactive: -0.041 |
| FBXO9 (UniProt Q9UK97) | inactive: 0.124 | – | inactive: -0.027 | – | active: 0.466 | inactive: -0.169 | inactive: 0.007 | inactive: 0.077 | inactive: 0.012 | inactive: 0.036 |
| FBH1 isoform 2 (UniProt Q8NFZ0) | inactive: 0.106 | inactive: 0.095 | – | inactive: 0.081 | inactive: -0.087 | inactive: -0.002 | inactive: -0.063 | inactive: 0.281 | inactive: 0.038 | inactive: 0.012 |
| FBXO42 (UniProt Q6P3S6) | inactive: -0.037 | inactive: 0.011 | inactive: 0.025 | inactive: 0.009 | inactive: 0.047 | inactive: -0.054 | inactive: 0.036 | inactive: 0.07 | inactive: 0.063 | inactive: -0.088 |
| FGFR1OP2 (UniProt Q9NVK5) | inactive: -0.214 | – | inactive: 0.06 | inactive: 0.052 | inactive: -0.003 | – | inactive: 0.076 | inactive: -0.015 | – | inactive: -0.054 |
| FERMT2 isoform 3 (UniProt Q96AC1) | inactive: -0.761 | inactive: 0.171 | inactive: 0.048 | – | inactive: 0.187 | inactive: 0.116 | inactive: -0.032 | inactive: -0.206 | inactive: 0.062 | inactive: -0.203 |
| FBXW2 (UniProt Q9UKT8) | inactive: -0.264 | inactive: 0.102 | inactive: -0.024 | inactive: -0.11 | inactive: -0.173 | inactive: 0.147 | – | inactive: 0.137 | inactive: 0.027 | – |
| FBXO11 isoform 5 (UniProt Q86XK2) | – | inactive: -0.007 | – | – | inactive: -0.029 | inactive: 0.108 | – | inactive: -0.129 | inactive: -0.068 | – |
| FBXO2 (UniProt Q9UK22) | – | – | – | – | – | – | – | – | – | inactive: -0.159 |
| FMOD (UniProt Q06828) | – | – | – | inactive: 0.037 | – | – | – | – | – | – |
| FAM53B (UniProt Q14153) | inactive: -0.001 | – | – | – | inactive: -0.138 | – | – | inactive: 0.161 | – | – |
| FBF1 isoform 6 (UniProt Q8TES7) | inactive: -0.017 | – | – | inactive: -0.182 | – | – | inactive: 0.206 | – | – | – |
| FGB (UniProt P02675) | – | inactive: 0.063 | inactive: -0.056 | inactive: -0.042 | inactive: 0.304 | – | inactive: -0.024 | inactive: -0.05 | – | inactive: -0.007 |

At a glance, some entries already given.

| Target | log2 fold change [1] | log2 fold change (filanesib) | log2 fold change (zotarolimus) | log2 fold change (idasanutlin) | log2 fold change (alisertib) | log2 fold change [2] | log2 fold change (gefitinib) | log2 fold change [3] | log2 fold change (lapatinib) | log2 fold change (pictilisib) |
| --- | --- | --- | --- | --- | --- | --- | --- | --- | --- | --- |
| FERMT2 isoform 3 (UniProt Q96AC1) | inactive: -0.761 | inactive: 0.171 | inactive: 0.048 | – | inactive: 0.187 | inactive: 0.116 | inactive: -0.032 | inactive: -0.206 | inactive: 0.062 | inactive: -0.203 |
| FBXW2 (UniProt Q9UKT8) | inactive: -0.264 | inactive: 0.102 | inactive: -0.024 | inactive: -0.11 | inactive: -0.173 | inactive: 0.147 | – | inactive: 0.137 | inactive: 0.027 | – |
